Experimental data reported in PubChem BioAssay AID2685 (National Center for Advancing Translational Sciences (NCATS), 2010).
This is one part of the list. Further columns of the screen follow, without active or inactive calls. The list favours compounds with an active or inconclusive main result. Words in brackets tell the shape of the fitted curve; partial curves, single points and poor fits give uncertain potencies.

Experiment: qHTS Assay for Lipid Storage Modulators in Drosophila S3 Cells;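 as to cell number change: cells counted by Cell Tracker Red CMTPX staining in the red channel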
Conditions: BODIPY lipid droplet fluorescence, 18-24 h; for cell number change: measured here: cell count max response, cells fed with added oleic acid
In short: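 Laser-scanning cytometry quantifies lipid droplet accumulation (500–530 nm total intensity; droplet/cell object ratio) in oleic acid-fed (400 uM added) Drosophila S3 cells treated with a concentration series. 20 uM Triacsin C defined 100% inhibition.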

[1] = measured here: lipid fluorescence (Fed channel) AC50, cells fed with added oleic acid
[2] = measured here: cell number channel AC50, cells fed with added oleic acid

| SMILES | cell number change [%] | AC50 [1] | AC50 [2] |
| --- | --- | --- | --- |
| CCOc1ccc(N2C(=O)Nc3ccccc3C2(O)C(=O)NCc2ccc3c(c2)OCO3)cc1 (stereo unspecified) | 17.5 | 29.1 µM [rising, single point] |  |
| O=C1[C@H]2[C@@H](c3ccc(F)cc3)N3C(=O)N(c4cccc(Cl)c4)C(=O)[C@@]3(Cc3ccc(Cl)cc3)[C@H]2C(=O)N1C1CCCCC1 | 54.4 |  | 18.4 µM [rising, partial curve, poor fit] |
| CCN(C1CCS(=O)(=O)C1)S(=O)(=O)c1ccc(OC)c(OC)c1 (stereo unspecified) | -6.7 | 20.6 µM [falling, single point] |  |
| CC(C)(O)c1nnn(-c2ccccc2)c1C(F)(F)F | -0.625 |  |  |
| CCN1/C(=C/C=C/C=C/C=C/c2sc3ccccc3[n+]2CC)Sc2ccccc21 | -62.9 | 16.4 µM [falling, partial curve] | 14.6 µM [falling, partial curve, poor fit] |
| O=c1oc2cc(Br)ccc2n1CSC1=NCCS1 | -50.9 |  | 0.0259 µM [falling, full curve, poor fit] |
| Cc1cccn2c(=O)c(C=O)c(Sc3ncccn3)nc12 | 17.1 |  |  |
| COc1ccc(N(CC(=O)Nc2cccc(N(C)S(C)(=O)=O)c2)S(C)(=O)=O)cc1OC | 15.5 | 0.411 µM [falling, partial curve] |  |
| c1cncc(-c2noc(-c3ccc4ccccc4c3)n2)c1 | 13.5 |  |  |
| C=CCOn1c(=O)c(-c2ccc(Br)cc2)[n+]([O-])c2ccccc21 | 34.7 |  |  |
| Cc1cccc(-n2nc3c(c2NC(=O)c2ccc4c(c2)OCO4)CS(=O)(=O)C3)c1C | 4.84 |  |  |
| CCOC(=O)c1ccc(CNC(=O)c2n[nH]c(=O)c3ccccc23)o1 | 10.7 | 18.4 µM [rising, partial curve] |  |
| Cc1nn(CC(=O)N(C)C2CCS(=O)(=O)C2)c(C)c1S(=O)(=O)N(C)C (stereo unspecified) | 8.08 |  | 0.58 µM [falling, single point] |
| COC(=O)[C@H](Cc1ccccc1)NC(=O)NCCc1ccc(S(N)(=O)=O)cc1 | -52.7 | 29.1 µM [falling, single point] | 16.4 µM [falling, single point] |
| COc1cc(/C=N/NC(=O)c2c(-c3ccccc3)noc2C)ccc1O | -21.4 | 0.651 µM [rising, single point] |  |
| CCn1cc(C(=O)NCCCN2CCCC(C)C2)c(=O)c2cc(S(=O)(=O)N3CCc4ccccc4C3)ccc21 (stereo unspecified) | 4.36 |  |  |
| C=CCSc1nccc(-c2cc(Cl)sc2Cl)n1 | 106 | 1.64 µM [falling, partial curve] | 20.6 µM [rising, partial curve] |

Sorted by length of the SMILES (ascending): part of the list above

| SMILES | cell number change [%] | AC50 [1] | AC50 [2] |
| --- | --- | --- | --- |
| COc1cc(/C=N/NC(=O)c2c(-c3ccccc3)noc2C)ccc1O | -21.4 | 0.651 µM [rising, single point] |  |
| C=CCOn1c(=O)c(-c2ccc(Br)cc2)[n+]([O-])c2ccccc21 | 34.7 |  |  |
| O=C1[C@H]2[C@@H](c3ccc(F)cc3)N3C(=O)N(c4cccc(Cl)c4)C(=O)[C@@]3(Cc3ccc(Cl)cc3)[C@H]2C(=O)N1C1CCCCC1 | 54.4 |  | 18.4 µM [rising, partial curve, poor fit] |
